Measurements taken from article PMC7819943, “Rice protein-binding microarrays: a tool to detect cis-acting elements near promoter regions in rice”.
The other results are listed elsewhere or left out.

Target: T1, OsSMF1 (Oryza sativa, UniProt Q6ZLB0 1-436)
T1 sequence: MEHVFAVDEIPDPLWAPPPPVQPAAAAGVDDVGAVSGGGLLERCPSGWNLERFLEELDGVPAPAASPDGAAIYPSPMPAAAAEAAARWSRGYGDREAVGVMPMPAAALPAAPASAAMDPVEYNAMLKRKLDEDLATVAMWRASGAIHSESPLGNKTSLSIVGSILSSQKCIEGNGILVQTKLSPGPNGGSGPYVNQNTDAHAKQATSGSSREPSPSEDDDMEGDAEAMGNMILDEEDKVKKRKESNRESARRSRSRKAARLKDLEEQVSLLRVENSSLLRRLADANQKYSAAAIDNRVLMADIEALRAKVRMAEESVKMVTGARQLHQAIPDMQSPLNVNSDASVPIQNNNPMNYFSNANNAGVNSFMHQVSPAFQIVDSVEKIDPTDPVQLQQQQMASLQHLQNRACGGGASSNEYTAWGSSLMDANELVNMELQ
Assay: protein-binding microarray (RPBM); PBS, 2% BSA, 51.3 ng/ul salmon testes DNA, 50 uM zinc acetate, 200 nM TF, 25 C, 1 h; high values mean tight binding
Settings: protein: recombinant; tags: N-terminal polyhistidine and DsRed monomer fusion (pET32a); chain copies: 2; label: CyDye5-dUTP incorporated in the synthesized complementary strand; 3' TTTTT single-stranded linker to array surface; dsDNA, one strand shown
How it was run: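 Transcription factors were made in E. coli BL21-CodonPlus as N-terminal fusions to a polyhistidine tag and DsRed, then purified on Ni–NTA. After primer extension with Cy5-dUTP and blocking with 2% BSA, a custom Agilent array was exposed for 1 h at 25 °C to 200 nM protein in PBS, 2% BSA, salmon testes DNA and 50 µM zinc acetate. Washed arrays were scanned on an Axon 4000B, and the binding signal is per-feature fluorescence intensity in arbitrary units.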

Sequence	binding signal
AATTTGGATTTGAATTATATCTGATTCAAATTTGAATTTGCGGAGTCACCTAGTGCAG	3270 fluorescence intensity (a.u.)
TGTTTTCGTGATACTTACTACACTTAAATAAGAACGCAACCGGAGTCACCTAGTGCAG	3890 fluorescence intensity (a.u.)
AGTAGCAGCCGGCGTGCTACTCCTCCGGTCAGCAGCAGCCCGGAGTCACCTAGTGCAG	3550 fluorescence intensity (a.u.)
ACCTCAGAGAAAGAGCTGCGCCGAACCGTCACGAGGCGGCCGGAGTCACCTAGTGCAG	3250 fluorescence intensity (a.u.)
GTTTTGGTCGGTCTCATTCGCTCGTTCCTCCGCCCGAGGCCGGAGTCACCTAGTGCAG	4650 fluorescence intensity (a.u.)
TTATCCTACGTACAACACCTACTACAGCTATAGGTGTTGGCGGAGTCACCTAGTGCAG	3700 fluorescence intensity (a.u.)
GCATACGCAGATGCCAACAAAGCAACATGCATGAATGTCACGGAGTCACCTAGTGCAG	3430 fluorescence intensity (a.u.)
TCAATGGCGTCATACATTAGAATAAGGAGGGAGTAACTGACGGAGTCACCTAGTGCAG	3240 fluorescence intensity (a.u.)
CGAGCCGCACGTCACCTGAACAATCTATCTGATCCAAAGGCGGAGTCACCTAGTGCAG	5790 fluorescence intensity (a.u.)
CATGAACCTGTTACTTAATTATAGATAGCACTCATGAAGCCGGAGTCACCTAGTGCAG	7130 fluorescence intensity (a.u.)
TCGCCGAGGGAAGGCCTACGAGCGGATCTGCCATGTGGCGCGGAGTCACCTAGTGCAG	5200 fluorescence intensity (a.u.)
CATGCGCCACGTGATGCGTGCCACTAAACCATCGGCTGGCCGGAGTCACCTAGTGCAG	4370 fluorescence intensity (a.u.)
GGAATTTCTGGGCGTGACAGGTGTACATGATGTATTCCATCGGAGTCACCTAGTGCAG	3210 fluorescence intensity (a.u.)
TCCCACGCTGACTTAGCGCAGCTACTGCAGTCAAAGCGTCCGGAGTCACCTAGTGCAG	3680 fluorescence intensity (a.u.)
TGCCTTATTTCTATGTGGGTAAGCTCATTTTGTTGTTACGCGGAGTCACCTAGTGCAG	3180 fluorescence intensity (a.u.)
CATATTATGCTGTCATATCCTCGAGTATTCGTGTACCAATCGGAGTCACCTAGTGCAG	4300 fluorescence intensity (a.u.)
AAACCAACCAGTATTGGATATGACACGTGCTAACACATACCGGAGTCACCTAGTGCAG	7970 fluorescence intensity (a.u.)
ATTAATATATATATAAATGTGGGTAATGCTAGAAAGTCTTCGGAGTCACCTAGTGCAG	21300 fluorescence intensity (a.u.)
TTTGAAAGACAAGTCATCCAAAGCTGACGAAACACTATATCGGAGTCACCTAGTGCAG	3310 fluorescence intensity (a.u.)
TTTGACCGTGTCTTACCTACGTGGAGGATAACATGGAATTCGGAGTCACCTAGTGCAG	5930 fluorescence intensity (a.u.)
CATCCGCACCCGTACATTATCCGCACCCGCTCCAAATCTGCGGAGTCACCTAGTGCAG	3370 fluorescence intensity (a.u.)

As entered above:
TCAATGGCGTCATACATTAGAATAAGGAGGGAGTAACTGACGGAGTCACCTAGTGCAG | binding signal: 3240 fluorescence intensity (a.u.)
AAACCAACCAGTATTGGATATGACACGTGCTAACACATACCGGAGTCACCTAGTGCAG | binding signal: 7970 fluorescence intensity (a.u.)

Following part

Sequence	binding signal
AAGGCCCAGTAAAACCACTAGTGGAGCAGCATCAGCATCACGGAGTCACCTAGTGCAG	3180 fluorescence intensity (a.u.)
TTCCCCGCACATCGAATCCCACACTCACCGACGCGTGGGCCGGAGTCACCTAGTGCAG	4520 fluorescence intensity (a.u.)
ATGAACGTGCGTTGGTGTGTGCGTGGACAAATACCTAACTCGGAGTCACCTAGTGCAG	6730 fluorescence intensity (a.u.)
ATCAAATGATTCAGTACCTATTGCTACTATCTTCATTCCACGGAGTCACCTAGTGCAG	3760 fluorescence intensity (a.u.)
CTTCACACCACACATTCTAAGACACGTACGCATGCCTGTACGGAGTCACCTAGTGCAG	7660 fluorescence intensity (a.u.)
GGTAGCCTAGCTACACAAGAAAGAGAAGGAGGAGGAGAAGCGGAGTCACCTAGTGCAG	29800 fluorescence intensity (a.u.)
TGGCAGACGGGCAGTCCCATAAATTAATGTATCACTGCACCGGAGTCACCTAGTGCAG	7040 fluorescence intensity (a.u.)
GATTGCTAACTTGCTTCCTCCGTCCGCGGCCACCACTTTCCGGAGTCACCTAGTGCAG	27000 fluorescence intensity (a.u.)
GTTGTGTATGGGCACCAACACCTTGTCATTGGCACTTTGCCGGAGTCACCTAGTGCAG	3690 fluorescence intensity (a.u.)
CCCAGTTTGGAGTAACGCCCACGTCACGCTCGCGGCTCACCGGAGTCACCTAGTGCAG	20000 fluorescence intensity (a.u.)
GACGCCGACGTCGCGCCACCGTGGCGCGGCACCGACACCGCGGAGTCACCTAGTGCAG	3730 fluorescence intensity (a.u.)
GCAAGCAGTTCAGTGGATCACATTACACGTCGCCCTGATTCGGAGTCACCTAGTGCAG	4460 fluorescence intensity (a.u.)
TCAGGAGGAAGCCTACGGGCCCTCGCACCGTCAGCATCACCGGAGTCACCTAGTGCAG	7490 fluorescence intensity (a.u.)
TGTGTGTGTATATATATGTAGCCTGTTCGCACATCATCTTCGGAGTCACCTAGTGCAG	3910 fluorescence intensity (a.u.)
CCCAGACCAACCAACCGGTCGCCGAAAGCCCACCACACACCGGAGTCACCTAGTGCAG	3420 fluorescence intensity (a.u.)
TCGCTCACCACTCCGACTCCGACGCCACCTCCTGCAGCGGCGGAGTCACCTAGTGCAG	3180 fluorescence intensity (a.u.)
CCCGCGCCGCGGCGGATCGATGGAGCTGTTCGAGCGCGCGCGGAGTCACCTAGTGCAG	3160 fluorescence intensity (a.u.)
CGTCTGCCATGTATGCAAATACGACAGGCATTCTTGGGGTCGGAGTCACCTAGTGCAG	4260 fluorescence intensity (a.u.)
GTCTTTAAGCTGGCTACGTCATCGCACAATTTGATCGTTTCGGAGTCACCTAGTGCAG	11000 fluorescence intensity (a.u.)
ACTGCTTCGTCGTAACCCTTAGCGAGTAACGTGGCATATTCGGAGTCACCTAGTGCAG	3790 fluorescence intensity (a.u.)
GTCCCCAACTCTGACTGTCCCCACGTTTTCAGGCTGTTTGCGGAGTCACCTAGTGCAG	4300 fluorescence intensity (a.u.)
